Data as given in US20060173022A1, “Heterocyclic amides, method for the production thereof, substances containing said heterocyclic amides, and use thereof as pesticides” (Bayer CropScience GmbH, priority 2003, published 2006).
Some entries share one result that the patent states for a list of compounds. Some ranges recur; such a range may be that of the whole group of compounds.

Key:
[1] = test system: black bean aphids (Aphis fabae); test: Aphis fabae dip test on field bean (Vicia faba): plants and aphids dipped in solution of compound; format: in vivo; conditions: 300 ppm active compound; plants and aphids dipped 5 seconds; effect determined after 3 and 6 days
[2] = test system: black bean aphids (Aphis fabae); test: Aphis fabae root-systemic test on field bean (Vicia faba): solution pipetted into the bottle; format: in vivo; conditions: 300 ppm active compound; 4 ml solution pipetted into bottle; effect determined after 3 and 6 days

| Compound | mortality among the aphids [1] | mortality among the aphids, owing to root-systemic action [2] |
| --- | --- | --- |
| CNC(=O)CSCCNC(=O)c1cnccc1C(F)(F)F [Example 28a] | 90-100% | 90-100% |
| O=C(NCCSCCF)c1cnccc1C(F)(F)F [Example 33] | 90-100% | 90-100% |
| O=C(NCCSCC(F)(F)F)c1cnccc1C(F)(F)F [Example 35] | 90-100% | 90-100% |
| O=C(NCCSCCO)c1cnccc1C(F)(F)F [Example 64] |  | 90-100% |
| Cc1ccc(SCCNC(=O)c2cnccc2C(F)(F)F)cc1 [Example 68] | 90-100% | 90-100% |
| O=C(NCCSc1ccc(C(F)(F)F)cc1)c1cnccc1C(F)(F)F [Example 70] |  | 90-100% |
| COc1ccc(SCCNC(=O)c2cnccc2C(F)(F)F)cc1 [Example 71] |  | 90-100% |
| O=C(NCCSc1ccc(C(F)(F)F)cn1)c1cnccc1C(F)(F)F [Example 77] | 90-100% | 90-100% |
| O=C(NCCSc1ncccn1)c1cnccc1C(F)(F)F [Example 79] |  | 90-100% |
| Cc1cc(C)nc(SCCNC(=O)c2cnccc2C(F)(F)F)n1 [Example 94] | 90-100% | 90-100% |
| Cn1nnnc1SCCNC(=O)c1cnccc1C(F)(F)F [Example 95] | 90-100% | 90-100% |
| O=C(NCCSCc1ccco1)c1cnccc1C(F)(F)F [Example 113] |  | 90-100% |
| O=C(NCCSCc1cccs1)c1cnccc1C(F)(F)F [Example 114] |  | 90-100% |
| Cl.N=C(N)SCCNC(=O)c1cnccc1C(F)(F)F [Example 116] | 90-100% | 90-100% |
| C[S+]([O-])CCNC(=O)c1cnccc1C(F)(F)F (stereo not drawn) [Example 120] | 90-100% | 90-100% |
| CC[S+]([O-])CCNC(=O)c1cnccc1C(F)(F)F (stereo not drawn) [Example 121] | 90-100% | 90-100% |
| O=C(NCC[S+]([O-])CC(F)(F)F)c1cnccc1C(F)(F)F (stereo not drawn) [Example 154] | 90-100% | 90-100% |
| O=C(NCC[S+]([O-])C1CCCC1)c1cnccc1C(F)(F)F (stereo not drawn) [Example 175] |  | 90-100% |
| Cc1ccc([S+]([O-])CCNC(=O)c2cnccc2C(F)(F)F)cc1 (stereo not drawn) [Example 188] | 90-100% | 90-100% |
| O=C(NCC[S+]([O-])c1ccc(C(F)(F)F)cn1)c1cnccc1C(F)(F)F (stereo not drawn) [Example 197] | 90-100% |  |
| Cc1cc(C)nc([S+]([O-])CCNC(=O)c2cnccc2C(F)(F)F)n1 (stereo not drawn) [Example 213] | 90-100% | 90-100% |
| O=C(NCCS(=O)(=O)c1ccc(C(F)(F)F)cn1)c1cnccc1C(F)(F)F [Example 308] | 90-100% | 90-100% |
| Cc1cc(C)nc(S(=O)(=O)CCNC(=O)c2cnccc2C(F)(F)F)n1 [Example 322] | 90-100% | 90-100% |
| C=CCSCCCNC(=O)c1cnccc1C(F)(F)F [Example 345] |  | 90-100% |

| Compound | mortality among the aphids [1] | mortality among the aphids, owing to root-systemic action [2] |
| --- | --- | --- |
| CNC(=O)CSCCCNC(=O)c1cnccc1C(F)(F)F [Example 365a] |  | 90-100% |
| O=C(NCCCSCC(F)(F)F)c1cnccc1C(F)(F)F [Example 373] | 90-100% | 90-100% |
| O=C(NCCCSC1CCCC1)c1cnccc1C(F)(F)F [Example 393] | 90-100% | 90-100% |
| COc1ccc(SCCCNC(=O)c2cnccc2C(F)(F)F)cc1 [Example 409a] | 90-100% | 90-100% |
| O=C(NCCCSc1ccc(C(F)(F)F)cn1)c1cnccc1C(F)(F)F [Example 414] | 90-100% | 90-100% |
| O=C(NCCCSc1ncccn1)c1cnccc1C(F)(F)F [Example 416] | 90-100% | 90-100% |
| Cn1c(SCCCNC(=O)c2cnccc2C(F)(F)F)nc2ccccc21 [Example 420] | 90-100% | 90-100% |
| O=C(NCCCSc1nccs1)c1cnccc1C(F)(F)F [Example 421] | 90-100% | 90-100% |
| Cn1cnnc1SCCCNC(=O)c1cnccc1C(F)(F)F [Example 426] | 90-100% | 90-100% |
| Cc1nnc(SCCCNC(=O)c2cnccc2C(F)(F)F)s1 [Example 427] | 90-100% | 90-100% |
| Cc1cc(C)nc(SCCCNC(=O)c2cnccc2C(F)(F)F)n1 [Example 430] | 90-100% | 90-100% |
| Cn1nnnc1SCCCNC(=O)c1cnccc1C(F)(F)F [Example 431] | 90-100% | 90-100% |
| O=C(NCCCSCc1ccccc1)c1cnccc1C(F)(F)F [Example 438] | 90-100% | 90-100% |
| C[S+]([O-])CCCNC(=O)c1cnccc1C(F)(F)F (stereo not drawn) [Example 452] |  | 90-100% |
| C=CC[S+]([O-])CCCNC(=O)c1cnccc1C(F)(F)F (stereo not drawn) [Example 464] |  | 90-100% |
| Cc1nnc([S+]([O-])CCCNC(=O)c2cnccc2C(F)(F)F)s1 (stereo not drawn) [Example 545] |  | 90-100% |
| O=C(NCCC[S+]([O-])Cc1ccccc1)c1cnccc1C(F)(F)F (stereo not drawn) [Example 557] |  | 90-100% |
| C=CCS(=O)(=O)CCCNC(=O)c1cnccc1C(F)(F)F [Example 571] |  | 90-100% |
| O=C(NCCCS(=O)(=O)c1ccc(C(F)(F)F)cn1)c1cnccc1C(F)(F)F [Example 637] |  | 90-100% |
| CC1OCCC1SCCCNC(=O)c1cnccc1C(F)(F)F (stereo not drawn) [Example 681] |  | 90-100% |
| CC(C)NC(=O)NCCNC(=O)c1cnccc1C(F)(F)F [Example 740] | 90-100% |  |
| CCCCNC(=O)NCCNC(=O)c1cnccc1C(F)(F)F [Example 754] | 90-100% |  |
| O=C(NCCOCCO)c1cnccc1C(F)(F)F [Example 829] |  | 90-100% |
| CC(COc1ccc(F)cc1Cl)NC(=O)c1cnccc1C(F)(F)F (stereo not drawn) [Example 999] |  | 90-100% |
